Experimental data reported in the supplement of paper PMC10849652.
The other results are listed elsewhere or left out. Residues, ends and D or L forms follow the SMILES beside them. *: point of attachment. Cbz = O=C(OCc1ccccc1)*

Amino acid sequences for entries named in this document (tags omitted). A change or cut given only in a name is not applied to a line headed by its entry.
UniProt Q8IYB8: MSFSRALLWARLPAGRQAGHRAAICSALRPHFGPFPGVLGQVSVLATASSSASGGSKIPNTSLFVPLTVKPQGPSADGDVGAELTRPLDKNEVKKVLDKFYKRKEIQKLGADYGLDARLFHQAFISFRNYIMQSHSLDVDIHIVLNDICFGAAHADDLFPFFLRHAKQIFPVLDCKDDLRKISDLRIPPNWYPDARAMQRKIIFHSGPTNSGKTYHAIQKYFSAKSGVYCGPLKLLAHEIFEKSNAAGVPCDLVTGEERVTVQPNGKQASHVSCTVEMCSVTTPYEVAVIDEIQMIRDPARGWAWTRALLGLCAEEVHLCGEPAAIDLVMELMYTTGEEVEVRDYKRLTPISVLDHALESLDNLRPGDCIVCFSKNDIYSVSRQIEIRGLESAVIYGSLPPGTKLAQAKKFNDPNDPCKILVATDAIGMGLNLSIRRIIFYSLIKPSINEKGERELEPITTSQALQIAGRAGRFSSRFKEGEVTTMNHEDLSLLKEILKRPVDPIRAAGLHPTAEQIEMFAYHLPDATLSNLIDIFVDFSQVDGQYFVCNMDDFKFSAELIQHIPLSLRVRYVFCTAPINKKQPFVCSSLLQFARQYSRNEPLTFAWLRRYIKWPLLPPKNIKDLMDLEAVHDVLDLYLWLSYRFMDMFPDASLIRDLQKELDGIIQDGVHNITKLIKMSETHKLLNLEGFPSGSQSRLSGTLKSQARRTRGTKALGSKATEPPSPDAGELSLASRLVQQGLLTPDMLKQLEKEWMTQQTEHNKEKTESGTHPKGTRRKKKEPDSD
UniProt O14662: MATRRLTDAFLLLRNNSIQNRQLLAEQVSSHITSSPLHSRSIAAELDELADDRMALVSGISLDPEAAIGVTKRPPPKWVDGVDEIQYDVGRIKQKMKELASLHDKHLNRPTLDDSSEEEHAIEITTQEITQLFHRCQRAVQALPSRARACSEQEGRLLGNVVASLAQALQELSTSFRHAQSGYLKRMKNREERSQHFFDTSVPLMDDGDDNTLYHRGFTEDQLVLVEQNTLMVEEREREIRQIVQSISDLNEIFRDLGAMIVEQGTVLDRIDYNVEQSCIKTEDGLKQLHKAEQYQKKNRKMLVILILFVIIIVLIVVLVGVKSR
UniProt Q17R31: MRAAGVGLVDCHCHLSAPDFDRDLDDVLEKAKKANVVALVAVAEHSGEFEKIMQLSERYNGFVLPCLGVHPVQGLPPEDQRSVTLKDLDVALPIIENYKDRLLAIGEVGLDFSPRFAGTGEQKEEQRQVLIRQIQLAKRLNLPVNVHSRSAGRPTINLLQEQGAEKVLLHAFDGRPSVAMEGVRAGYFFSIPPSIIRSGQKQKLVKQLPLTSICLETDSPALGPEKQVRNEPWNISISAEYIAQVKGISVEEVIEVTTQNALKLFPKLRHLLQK
UniProt Q6P1N9: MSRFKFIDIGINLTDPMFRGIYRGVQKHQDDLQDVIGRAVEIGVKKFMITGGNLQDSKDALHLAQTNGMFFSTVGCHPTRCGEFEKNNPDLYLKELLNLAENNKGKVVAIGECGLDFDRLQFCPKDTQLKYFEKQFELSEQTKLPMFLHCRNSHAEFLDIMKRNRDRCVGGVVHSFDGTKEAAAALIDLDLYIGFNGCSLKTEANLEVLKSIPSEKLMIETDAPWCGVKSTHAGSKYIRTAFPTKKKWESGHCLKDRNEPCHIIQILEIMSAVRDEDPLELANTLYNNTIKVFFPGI
UniProt Q6ICL3: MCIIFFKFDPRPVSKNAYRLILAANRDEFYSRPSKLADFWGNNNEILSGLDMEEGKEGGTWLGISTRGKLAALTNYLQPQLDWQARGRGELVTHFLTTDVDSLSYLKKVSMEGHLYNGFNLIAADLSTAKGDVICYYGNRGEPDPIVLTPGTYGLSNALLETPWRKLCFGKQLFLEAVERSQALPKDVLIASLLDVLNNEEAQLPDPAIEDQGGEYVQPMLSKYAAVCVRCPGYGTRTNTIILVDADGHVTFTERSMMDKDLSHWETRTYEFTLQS
UniProt Q13148, whole entry, looked up: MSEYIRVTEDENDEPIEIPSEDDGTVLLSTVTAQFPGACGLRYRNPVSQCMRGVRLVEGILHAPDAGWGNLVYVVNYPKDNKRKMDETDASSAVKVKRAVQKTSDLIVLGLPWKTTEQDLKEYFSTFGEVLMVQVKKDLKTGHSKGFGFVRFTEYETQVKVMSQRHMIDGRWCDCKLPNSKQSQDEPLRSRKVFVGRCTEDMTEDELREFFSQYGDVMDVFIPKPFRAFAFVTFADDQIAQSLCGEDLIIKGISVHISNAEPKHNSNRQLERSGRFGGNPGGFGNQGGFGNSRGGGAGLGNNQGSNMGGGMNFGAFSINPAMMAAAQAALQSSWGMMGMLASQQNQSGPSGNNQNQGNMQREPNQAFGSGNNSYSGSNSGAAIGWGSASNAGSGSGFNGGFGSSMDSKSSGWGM
UniProt Q15750: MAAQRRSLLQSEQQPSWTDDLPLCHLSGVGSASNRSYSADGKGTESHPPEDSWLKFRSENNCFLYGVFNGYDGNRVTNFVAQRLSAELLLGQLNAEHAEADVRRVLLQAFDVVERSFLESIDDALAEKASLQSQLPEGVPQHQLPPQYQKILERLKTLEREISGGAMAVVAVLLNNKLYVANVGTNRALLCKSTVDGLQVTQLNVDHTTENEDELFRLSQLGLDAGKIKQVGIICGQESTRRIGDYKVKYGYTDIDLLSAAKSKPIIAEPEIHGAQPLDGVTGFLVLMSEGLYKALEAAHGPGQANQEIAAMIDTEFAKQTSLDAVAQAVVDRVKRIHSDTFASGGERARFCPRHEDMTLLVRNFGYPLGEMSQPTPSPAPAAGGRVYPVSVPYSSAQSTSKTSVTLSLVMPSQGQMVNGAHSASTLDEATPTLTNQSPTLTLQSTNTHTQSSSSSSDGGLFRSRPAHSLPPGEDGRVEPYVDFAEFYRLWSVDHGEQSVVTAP
UniProt Q9UNK0: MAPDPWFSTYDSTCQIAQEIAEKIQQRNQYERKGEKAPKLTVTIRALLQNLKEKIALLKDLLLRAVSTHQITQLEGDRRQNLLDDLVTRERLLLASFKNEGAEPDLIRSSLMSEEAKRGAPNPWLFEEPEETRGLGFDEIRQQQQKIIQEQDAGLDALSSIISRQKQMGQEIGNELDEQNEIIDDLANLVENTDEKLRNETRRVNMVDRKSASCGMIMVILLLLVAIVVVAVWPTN
UniProt O75528: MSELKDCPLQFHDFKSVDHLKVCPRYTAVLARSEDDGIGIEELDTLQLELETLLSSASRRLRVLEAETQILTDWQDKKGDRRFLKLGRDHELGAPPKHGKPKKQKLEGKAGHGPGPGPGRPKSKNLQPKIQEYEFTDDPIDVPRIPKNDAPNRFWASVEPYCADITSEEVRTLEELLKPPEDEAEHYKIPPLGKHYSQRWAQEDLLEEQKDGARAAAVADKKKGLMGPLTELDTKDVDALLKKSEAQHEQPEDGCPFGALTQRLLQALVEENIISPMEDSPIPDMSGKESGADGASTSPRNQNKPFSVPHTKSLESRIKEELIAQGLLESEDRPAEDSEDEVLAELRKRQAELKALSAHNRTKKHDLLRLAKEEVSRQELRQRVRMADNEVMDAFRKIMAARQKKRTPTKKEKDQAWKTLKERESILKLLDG
UniProt Q86TM6, whole entry, looked up: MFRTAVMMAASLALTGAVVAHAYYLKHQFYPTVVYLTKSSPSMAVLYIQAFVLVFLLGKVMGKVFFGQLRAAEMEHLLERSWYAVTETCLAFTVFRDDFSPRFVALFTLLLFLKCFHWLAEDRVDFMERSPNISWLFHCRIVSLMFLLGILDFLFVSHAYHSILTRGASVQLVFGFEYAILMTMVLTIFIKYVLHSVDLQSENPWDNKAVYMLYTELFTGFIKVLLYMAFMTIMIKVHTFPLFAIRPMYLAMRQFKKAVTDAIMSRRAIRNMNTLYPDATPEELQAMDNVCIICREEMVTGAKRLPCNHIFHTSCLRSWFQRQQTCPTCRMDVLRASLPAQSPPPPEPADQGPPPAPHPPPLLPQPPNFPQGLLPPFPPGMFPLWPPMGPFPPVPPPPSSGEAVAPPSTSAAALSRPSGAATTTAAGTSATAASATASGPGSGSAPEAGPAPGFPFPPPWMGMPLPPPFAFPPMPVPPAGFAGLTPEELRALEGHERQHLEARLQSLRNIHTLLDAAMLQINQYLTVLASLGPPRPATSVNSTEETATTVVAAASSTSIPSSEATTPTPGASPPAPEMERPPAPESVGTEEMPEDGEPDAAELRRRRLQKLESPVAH
UniProt P61764, whole entry, looked up: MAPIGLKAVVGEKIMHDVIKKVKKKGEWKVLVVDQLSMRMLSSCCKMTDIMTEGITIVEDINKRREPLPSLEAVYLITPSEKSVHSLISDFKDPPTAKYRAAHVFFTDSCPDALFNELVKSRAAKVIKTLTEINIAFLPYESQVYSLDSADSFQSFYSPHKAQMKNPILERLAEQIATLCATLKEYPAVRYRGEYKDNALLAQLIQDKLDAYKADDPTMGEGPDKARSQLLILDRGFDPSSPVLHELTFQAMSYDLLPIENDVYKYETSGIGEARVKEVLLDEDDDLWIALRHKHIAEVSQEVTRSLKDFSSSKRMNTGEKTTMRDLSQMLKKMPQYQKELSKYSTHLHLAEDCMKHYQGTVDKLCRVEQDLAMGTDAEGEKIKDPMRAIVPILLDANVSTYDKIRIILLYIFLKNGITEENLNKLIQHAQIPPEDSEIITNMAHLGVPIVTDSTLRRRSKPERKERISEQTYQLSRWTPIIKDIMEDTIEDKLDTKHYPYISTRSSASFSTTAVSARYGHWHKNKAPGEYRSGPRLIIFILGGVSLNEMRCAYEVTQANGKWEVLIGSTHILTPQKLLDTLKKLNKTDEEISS
UniProt Q15545, whole entry, looked up: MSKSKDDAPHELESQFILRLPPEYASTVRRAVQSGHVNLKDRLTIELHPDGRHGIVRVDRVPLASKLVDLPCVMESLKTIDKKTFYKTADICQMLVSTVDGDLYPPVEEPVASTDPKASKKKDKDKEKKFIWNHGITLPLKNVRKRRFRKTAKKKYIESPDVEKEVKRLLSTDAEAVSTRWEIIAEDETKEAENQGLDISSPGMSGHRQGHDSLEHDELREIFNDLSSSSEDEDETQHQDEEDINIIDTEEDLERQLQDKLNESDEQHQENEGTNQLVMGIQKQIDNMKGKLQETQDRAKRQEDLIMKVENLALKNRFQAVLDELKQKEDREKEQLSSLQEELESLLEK
UniProt P26639: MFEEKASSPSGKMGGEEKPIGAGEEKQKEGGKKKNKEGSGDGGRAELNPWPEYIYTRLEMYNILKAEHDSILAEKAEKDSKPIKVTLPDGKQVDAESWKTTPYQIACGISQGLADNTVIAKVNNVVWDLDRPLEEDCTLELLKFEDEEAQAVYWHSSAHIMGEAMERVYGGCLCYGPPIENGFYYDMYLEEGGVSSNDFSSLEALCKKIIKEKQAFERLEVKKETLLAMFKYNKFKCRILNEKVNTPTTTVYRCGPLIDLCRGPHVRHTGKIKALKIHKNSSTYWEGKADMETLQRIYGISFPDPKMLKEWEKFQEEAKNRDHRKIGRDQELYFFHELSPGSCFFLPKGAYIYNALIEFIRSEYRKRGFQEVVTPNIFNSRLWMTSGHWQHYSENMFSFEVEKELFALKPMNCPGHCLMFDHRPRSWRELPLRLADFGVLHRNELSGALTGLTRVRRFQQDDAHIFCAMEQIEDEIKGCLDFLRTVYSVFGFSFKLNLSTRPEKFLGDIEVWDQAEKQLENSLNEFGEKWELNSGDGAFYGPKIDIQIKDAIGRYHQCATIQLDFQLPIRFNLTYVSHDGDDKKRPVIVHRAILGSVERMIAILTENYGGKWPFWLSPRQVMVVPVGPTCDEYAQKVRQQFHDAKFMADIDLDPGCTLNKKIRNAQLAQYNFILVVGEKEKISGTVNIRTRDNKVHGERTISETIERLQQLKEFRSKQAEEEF
UniProt O15533, whole entry, looked up: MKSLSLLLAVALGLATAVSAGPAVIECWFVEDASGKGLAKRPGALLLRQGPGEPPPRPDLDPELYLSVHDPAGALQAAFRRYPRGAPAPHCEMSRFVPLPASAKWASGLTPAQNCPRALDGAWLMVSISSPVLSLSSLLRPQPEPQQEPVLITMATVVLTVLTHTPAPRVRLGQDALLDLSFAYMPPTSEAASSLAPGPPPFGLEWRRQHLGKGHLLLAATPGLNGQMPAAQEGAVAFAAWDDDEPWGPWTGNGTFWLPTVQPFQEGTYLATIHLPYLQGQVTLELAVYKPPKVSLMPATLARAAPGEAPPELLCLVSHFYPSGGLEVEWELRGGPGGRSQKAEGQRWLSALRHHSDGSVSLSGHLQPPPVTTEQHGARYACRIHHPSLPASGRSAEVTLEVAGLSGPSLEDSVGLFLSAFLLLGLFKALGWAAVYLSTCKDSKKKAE

How the values were obtained:
Experiment in all cases: log2 fold change, soluble protein after heating vs DMSO (PISA); higher = thermal stabilisation; K562 cells, 10 uM, 30 min; active = over 0.2 and 3.5 SD of the protein, either way, in both replicates (recomputed)
IRAK-1-4 Inhibitor I = compound: C1COCCN1CCN2C3=CC=CC=C3N=C2NC(=O)C4=CC(=CC=C4)[N+](=O)[O-] [IRAK-1-4 Inhibitor I]
Outline: (§1)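 K562 cells at 2×10^6 cells/mL were exposed to 10 μM compound for 30 min, then aliquots were heated for 3 min across 48°C-58°C, pooled, and extracted in PBS containing 0.5% NP-40 at 4°C. The supernatant after 21,000xg for 90 min was taken as soluble protein and measured by TMTpro 16plex LC-MS/MS with channel sums equalised. Thermal stability is reported relative to control samples, with values from duplicates. Fold changes are given on a log2 scale.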

ibrutinib = compound: C=CC(=O)N1CCC[C@@H](n2nc(-c3ccc(Oc4ccccc4)cc3)c3c(N)ncnc32)C1 [ibrutinib]
Outline: as §1

[1] = compound: CC(=O)c1cnc2ccc(-c3cc(Cl)c(O)c(Cl)c3)nc2c1N[C@H]1CC[C@H](CN(C)C)CC1
Outline: as §1

ralimetinib = compound: CC(C)(C)Cn1c(N)nc2ccc(-c3[nH]c(C(C)(C)C)nc3-c3ccc(F)cc3)nc21 [ralimetinib]
Outline: as §1

[2] = compound: CC(C)(O)CC(=O)NCCn1ccc2ncnc(Nc3ccc(Oc4cccc(C(F)(F)F)c4)c(Cl)c3)c21
Outline: as §1

[3] = compound: CC(C)C1=C2N=C(C=C(N2N=C1)NCC3=CC=CC=C3)NCCCCCCN
Outline: as §1

[4] = compound: CC(C)C[C@@H](C=O)NC(=O)[C@H](CC(C)C)NC(=O)[C@H](CC(C)C)NC(=O)OCc1ccccc1
Outline: as §1

pinometostat = compound: CC(C)N(C[C@H]1O[C@@H](n2cnc3c(N)ncnc32)[C@H](O)[C@@H]1O)[C@H]1C[C@@H](CCc2nc3cc(C(C)(C)C)ccc3[nH]2)C1 [pinometostat]
Outline: as §1

[5] = compound: CC1=C(C(CC(=O)N1)C2=CC=C(C=C2)C(F)(F)F)C(=O)NC3=C(C=C4C(=C3)C=NN4)F
Outline: as §1

[6] = compound: CC1=C(C2=C(C=C1)C(=O)C3=CC=CC=C3N2CCCN)C
Outline: as §1

[7] = compound: CC1=C(C=C(C=C1)NC(=O)C2=CC(=CC=C2)C(C)(C)C#N)NC3=CC4=C(C=C3)N=CN(C4=O)C
Outline: as §1

[8] = compound: CC1=C(C=C(C=C1)NC(=O)C2=CC(=CC=C2)N(C)C)NC(=O)C3=CC=C(C=C3)O
Outline: as §1

[9] = compound: CC1=CC=C(C=C1)SC2=C3C=C(SC3=CN=C2)C(=O)N
Outline: as §1

[10] = compound: CC1=NC(=CC=C1)C2=C(N=C(N2)C(C)(C)C)C3=CC4=NC=CN=C4C=C3
Outline: as §1

Nexturastat A = compound: CCCCN(Cc1ccc(C(=O)NO)cc1)C(=O)Nc1ccccc1 [Nexturastat A]
Outline: as §1

vemurafenib = compound: CCCS(=O)(=O)Nc1ccc(F)c(C(=O)c2c[nH]c3ncc(-c4ccc(Cl)cc4)cc23)c1F [vemurafenib]
Outline: as §1

[11] = compound: CCCS(=O)(=O)Nc1ccc(F)c(C(=O)c2c[nH]c3ncc(Cl)cc23)c1F
Outline: as §1

[12] = compound: CCCc1cc(C)[nH]c(=O)c1CNC(=O)c1cc(-c2ccnc(N3CCN(C)CC3)c2)cc2c1cnn2C(C)C
Outline: as §1

givinostat = compound: CCN(CC)Cc1ccc2cc(COC(=O)Nc3ccc(C(=O)NO)cc3)ccc2c1 [givinostat]
Outline: as §1

barasertib = compound: CCN(CCCOc1ccc2c(Nc3cc(CC(=O)Nc4cccc(F)c4)[nH]n3)ncnc2c1)CCOP(=O)(O)O [barasertib]
Outline: as §1

Measured: log2 fold change

SUPV3L1 (UniProt Q8IYB8)
inactive: IRAK-1-4 Inhibitor I -0.013 | ibrutinib 0.007 | [1] -0.019 | ralimetinib -0.026 | [2] 0.004 | [3] 0.003 | [4] -0.006 | pinometostat -0.013 | [5] 0.008 | [6] 0.037 | [7] 0.022 | [8] 0.012 | [9] 0.008 | [10] 0.067 | Nexturastat A -0.094 | vemurafenib 0.018 | [11] 0.016 | [12] -0.035 | givinostat 0 | barasertib 0.028

STX16 isoform 2 (UniProt O14662)
inactive: IRAK-1-4 Inhibitor I -0.013 | ibrutinib 0.042 | [1] -0.011 | ralimetinib -0.027 | [2] 0.171 | [3] -0.083 | [4] 0.312 | pinometostat -0.023 | [5] 0.019 | [6] 0.107 | [7] -0.071 | [8] -0.021 | [9] 0.081 | [10] 0.05 | Nexturastat A 0.139 | vemurafenib 0.034 | [11] 0.024 | [12] 0.122 | givinostat -0.001 | barasertib 0.005

TATDN3 isoform 3 (UniProt Q17R31)
inactive: IRAK-1-4 Inhibitor I 0.017 | ibrutinib 0.021 | [1] -0.046 | ralimetinib 0.001 | [2] 0.015 | [3] 0.033 | [4] -0.029 | pinometostat 0.011 | [5] 0.001 | [6] -0.006 | [7] 0.009 | [8] 0.027 | [9] -0.011 | [10] 0.013 | Nexturastat A -0.069 | vemurafenib -0.063 | [11] -0.142 | [12] 0.005 | givinostat -0.06 | barasertib -0.004

TATDN1 (UniProt Q6P1N9)
inactive: IRAK-1-4 Inhibitor I 0.106 | ibrutinib 0.005 | [1] -0.008 | ralimetinib -0.032 | [2] 0.018 | [3] 0.018 | [4] -0.003 | pinometostat -0.012 | [5] 0.011 | [6] -0.052 | [7] -0.038 | [8] 0.002 | [9] -0.001 | [10] -0.006 | Nexturastat A 0.079 | vemurafenib -0.045 | [11] -0.026 | [12] -0.002 | givinostat -0.147 | barasertib -0.004

TANGO2 isoform 4 (UniProt Q6ICL3)
inactive: IRAK-1-4 Inhibitor I -0.018 | ibrutinib -0.082 | [1] 0.018 | ralimetinib -0.054 | [2] 0.02 | [3] -0.063 | [4] -0.047 | pinometostat 0.019 | [5] 0.04 | [6] 0.027 | [7] -0.018 | [8] -0.075 | [9] -0.025 | [10] -0.023 | Nexturastat A -0.098 | vemurafenib 0.003 | [11] -0.045 | [12] 0.032 | givinostat -0.005 | barasertib -0.025

TARDBP (UniProt Q13148)
inactive: IRAK-1-4 Inhibitor I -0.171 | ibrutinib -0.113 | [1] -0.019 | ralimetinib 0.066 | [2] 0.015 | [3] -0.209 | [4] 0.124 | pinometostat 0.133 | [5] -0.097 | [6] -0.005 | [7] -0.014 | [8] -0.03 | [9] -0.004 | [10] -0.109 | Nexturastat A 0.108 | vemurafenib 0.058 | [11] 0.06 | [12] 0.103 | givinostat 0.033 | barasertib 0.087

TAB1 (UniProt Q15750)
inactive: IRAK-1-4 Inhibitor I -0.12 | ibrutinib -0.212 | [1] -0.139 | ralimetinib 0.071 | [2] -0.125 | [3] -0.018 | [4] 0.031 | pinometostat 0.025 | [5] -0.017 | [6] -0.009 | [7] 0.073 | [8] -0.082 | [9] 0.057 | [10] 0.027 | Nexturastat A 0.122 | vemurafenib 0.08 | [11] 0.045 | [12] 0.058 | givinostat 0.083 | barasertib 0.128

STX8 (UniProt Q9UNK0)
inactive: IRAK-1-4 Inhibitor I -0.009 | ibrutinib 0 | [1] 0.001 | ralimetinib 0.118 | [2] 0.006 | [3] -0.082 | [4] 0.008 | pinometostat 0.035 | [5] -0.011 | [6] 0.042 | [7] -0.032 | [8] -0.024 | [9] 0.023 | [10] 0.03 | Nexturastat A -0.141 | vemurafenib 0.005 | [11] -0.02 | [12] 0.031 | givinostat 0.023 | barasertib -0.051

TADA3 (UniProt O75528)
inactive: IRAK-1-4 Inhibitor I 0.018 | ibrutinib -0.038 | [1] -0.01 | ralimetinib -0.002 | [2] 0.026 | [3] -0.016 | [4] -0.045 | pinometostat 0.023 | [5] 0.027 | [6] 0.045 | [7] -0.037 | [8] -0.054 | [9] 0.034 | [10] -0.041 | Nexturastat A -0.027 | vemurafenib 0.069 | [11] -0.01 | [12] -0.048 | givinostat 0.041 | barasertib 0.023

TAL1 (UniProt P17542)
inactive: IRAK-1-4 Inhibitor I 0.043 | ibrutinib 0.023 | [1] -0.029 | ralimetinib -0.059 | [2] -0.013 | [3] -0.002 | [4] 0.029 | pinometostat -0.032 | [5] 0.004 | [6] 0.058 | [7] -0.029 | [8] 0.011 | [9] 0.019 | [10] 0.014 | Nexturastat A -0.094 | vemurafenib -0.011 | [11] -0.02 | [12] -0.025 | givinostat 0.021 | barasertib -0.049

SYVN1 (UniProt Q86TM6)
inactive: IRAK-1-4 Inhibitor I -0.042 | ibrutinib -0.067 | [1] -0.003 | ralimetinib 0.006 | [2] 0.04 | [3] -0.095 | [4] -0.003 | pinometostat -0.076 | [5] -0.018 | [6] 0.094 | [7] 0.001 | [8] 0.021 | [9] 0.016 | [10] 0.047 | Nexturastat A -0.039 | vemurafenib -0.008 | [11] 0.057 | [12] -0.064 | givinostat 0 | barasertib -0.009

STXBP1 (UniProt P61764)
inactive: IRAK-1-4 Inhibitor I -0.098 | ibrutinib 0.127 | [1] -0.195 | ralimetinib 0.09 | [2] -0.151 | [3] -0.125 | [4] -0.063 | pinometostat 0.028 | [5] -0.03 | [6] 0.471 | [7] 0.025 | [8] -0.033 | [9] -0.003 | [10] 0.081 | Nexturastat A -0.142 | vemurafenib 0.09 | [11] 0.14 | [12] 0.139 | givinostat 0.111 | barasertib 0.031

TAF7 (UniProt Q15545)
inactive: IRAK-1-4 Inhibitor I 0.026 | ibrutinib -0.028 | [1] -0.036 | ralimetinib -0.042 | [2] 0.007 | [3] -0.006 | [4] 0.179 | pinometostat -0.021 | [5] 0.004 | [6] -0.074 | [7] -0.052 | [8] 0.021 | [9] 0.008 | [10] -0.008 | Nexturastat A 0.049 | vemurafenib 0.041 | [11] 0.004 | [12] 0 | givinostat 0.037 | barasertib 0.014

Retrieved one by one from the entries so far (two):
TAB1 (UniProt Q15750)
inactive: IRAK-1-4 Inhibitor I -0.12 | ibrutinib -0.212 | [1] -0.139 | ralimetinib 0.071 | [2] -0.125 | [3] -0.018 | [4] 0.031 | pinometostat 0.025 | [5] -0.017 | [6] -0.009 | [7] 0.073 | [8] -0.082 | [9] 0.057 | [10] 0.027 | Nexturastat A 0.122 | vemurafenib 0.08 | [11] 0.045 | [12] 0.058 | givinostat 0.083 | barasertib 0.128

TADA3 (UniProt O75528)
inactive: IRAK-1-4 Inhibitor I 0.018 | ibrutinib -0.038 | [1] -0.01 | ralimetinib -0.002 | [2] 0.026 | [3] -0.016 | [4] -0.045 | pinometostat 0.023 | [5] 0.027 | [6] 0.045 | [7] -0.037 | [8] -0.054 | [9] 0.034 | [10] -0.041 | Nexturastat A -0.027 | vemurafenib 0.069 | [11] -0.01 | [12] -0.048 | givinostat 0.041 | barasertib 0.023

Later entries

TARS1 (UniProt P26639)
inactive: IRAK-1-4 Inhibitor I -0.004 | ibrutinib 0.006 | [1] -0.005 | ralimetinib 0.022 | [2] -0.062 | [3] -0.156 | [4] -0.053 | pinometostat 0.01 | [5] 0.011 | [6] -0.007 | [7] 0.04 | [8] -0.046 | [9] 0.039 | [10] 0.008 | Nexturastat A -0.035 | vemurafenib 0.018 | [11] 0.062 | [12] 0.022 | givinostat -0.019 | barasertib 0.01

TAPBP isoform 3 (UniProt O15533)
inactive: IRAK-1-4 Inhibitor I -0.058 | ibrutinib -0.106 | [1] 0.037 | ralimetinib 0.086 | [2] -0.264 | [3] -0.094 | [4] 0.015 | pinometostat 0.064 | [5] -0.06 | [6] -0.012 | [7] 0.129 | [8] -0.116 | [9] 0.034 | [10] 0.319 | Nexturastat A 0.013 | vemurafenib -0.035 | [11] 0.189 | [12] 0.153 | givinostat 0.051 | barasertib 0.041

STT3A (UniProt P46977)
inactive: IRAK-1-4 Inhibitor I -0.014 | ibrutinib -0.047 | [1] 0.02 | ralimetinib -0.007 | [2] 0.011 | [3] -0.09 | [4] -0.027 | pinometostat 0.028 | [5] 0.021 | [6] -0.018 | [7] -0.012 | [8] 0.021 | [9] -0.026 | [10] -0.009 | Nexturastat A -0.127 | vemurafenib -0.022 | [11] 0.015 | [12] 0.012 | givinostat -0.039 | barasertib -0.005
